Measurements as given in PMC3169561, “Restoration of IFNγR Subunit Assembly, IFNγ Signaling and Parasite Clearance in Leishmania donovani Infected Macrophages: Role of Membrane Cholesterol” (PLoS Pathogens, 2011).

Biological target: T1, biotinylated recombinant murine IFNγ (mouse) (UniProt P01580)
T1 sequence (chain, biotin (EZ linked N-hydroxysulfosuccinimide-biotin)): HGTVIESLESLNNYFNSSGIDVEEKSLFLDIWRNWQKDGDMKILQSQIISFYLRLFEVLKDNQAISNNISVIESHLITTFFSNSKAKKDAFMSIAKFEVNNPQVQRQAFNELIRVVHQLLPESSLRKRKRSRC
Assay: pull-down; biotinylated IFNγ (0.5 ng/ml, 3 min, 37°C) on RAW 264.7 cells, captured on streptavidin-agarose from pooled raft and non-raft fractions; blot for IFNγR1 and IFNγR2; complexes boiled in 1% SDS, re-precipitated with anti-pTyr and blotted for IFNγR1, JAK2, JAK1 and STAT1; only the target purified

binding: binds
Substance: IFNγ receptor subunit 2 (IFNγR2) (mouse (endogenous in RAW 264.7))

No constants are given. Whether binding was seen depends on the method and setting. In cells and extracts the contact can be indirect. Binding calls can cover weak binding; strength is not graded here.
